Laboratory results taken from paper PMC8683481.
Results are given in words; binding and its absence hold for the method and conditions named. In cells and extracts the contact can be indirect. Some results given as binding are weak or reduced against the parent protein; the word gives no strength. Where a sequence is shown, tags or fusion partners need not be part of it.

Chains of the proteins cited; added tags and fusions are not shown.
UniProt P29350: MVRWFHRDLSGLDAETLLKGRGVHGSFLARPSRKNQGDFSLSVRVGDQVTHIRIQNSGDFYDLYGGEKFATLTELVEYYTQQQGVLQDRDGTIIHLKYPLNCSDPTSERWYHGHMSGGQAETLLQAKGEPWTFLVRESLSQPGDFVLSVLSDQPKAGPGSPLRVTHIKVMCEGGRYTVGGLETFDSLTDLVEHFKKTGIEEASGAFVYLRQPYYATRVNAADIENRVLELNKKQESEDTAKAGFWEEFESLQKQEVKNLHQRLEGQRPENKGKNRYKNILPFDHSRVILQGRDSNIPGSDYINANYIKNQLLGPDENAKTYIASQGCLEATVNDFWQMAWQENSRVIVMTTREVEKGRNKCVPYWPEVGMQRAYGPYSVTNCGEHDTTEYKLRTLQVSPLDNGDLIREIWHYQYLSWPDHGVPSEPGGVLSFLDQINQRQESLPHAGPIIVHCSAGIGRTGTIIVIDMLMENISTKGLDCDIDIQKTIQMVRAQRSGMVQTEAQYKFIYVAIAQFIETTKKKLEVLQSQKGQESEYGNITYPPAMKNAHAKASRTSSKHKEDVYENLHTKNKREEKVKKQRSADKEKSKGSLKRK

Biological target: T1, SFB-tagged LIFR protein (leukemia inhibitory factor receptor) (human) (UniProt P42702)
T1 sequence: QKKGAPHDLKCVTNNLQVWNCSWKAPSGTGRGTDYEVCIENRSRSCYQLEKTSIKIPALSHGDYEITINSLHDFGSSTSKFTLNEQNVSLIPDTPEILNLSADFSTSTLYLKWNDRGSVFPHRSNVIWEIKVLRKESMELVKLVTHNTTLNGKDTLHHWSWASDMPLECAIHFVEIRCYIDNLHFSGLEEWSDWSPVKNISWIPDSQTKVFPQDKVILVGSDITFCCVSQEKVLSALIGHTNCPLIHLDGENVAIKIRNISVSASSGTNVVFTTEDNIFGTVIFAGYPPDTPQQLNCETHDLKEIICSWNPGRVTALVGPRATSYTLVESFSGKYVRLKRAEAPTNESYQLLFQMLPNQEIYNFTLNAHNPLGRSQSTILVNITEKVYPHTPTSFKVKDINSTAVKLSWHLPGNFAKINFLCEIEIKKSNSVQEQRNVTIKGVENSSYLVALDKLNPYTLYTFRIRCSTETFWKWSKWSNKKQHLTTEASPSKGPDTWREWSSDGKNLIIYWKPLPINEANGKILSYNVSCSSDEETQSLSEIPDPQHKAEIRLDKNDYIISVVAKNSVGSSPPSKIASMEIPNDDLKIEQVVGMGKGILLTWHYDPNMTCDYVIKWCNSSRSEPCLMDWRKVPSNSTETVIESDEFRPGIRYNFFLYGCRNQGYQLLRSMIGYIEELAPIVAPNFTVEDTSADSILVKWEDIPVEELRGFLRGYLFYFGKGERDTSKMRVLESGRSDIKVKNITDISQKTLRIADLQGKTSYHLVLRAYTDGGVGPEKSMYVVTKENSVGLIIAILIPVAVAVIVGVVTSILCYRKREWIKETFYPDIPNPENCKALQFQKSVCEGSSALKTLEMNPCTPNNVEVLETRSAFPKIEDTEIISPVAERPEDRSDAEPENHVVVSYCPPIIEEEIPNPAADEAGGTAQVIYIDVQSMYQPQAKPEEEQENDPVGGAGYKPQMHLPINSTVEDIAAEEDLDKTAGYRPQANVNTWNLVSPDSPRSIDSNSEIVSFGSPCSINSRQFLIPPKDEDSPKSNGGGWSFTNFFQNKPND
Test: pull-down; HEK293T cells co-transfected with SHP1 or SHP2 and SFB-tagged GFP or LIFR; lysed after 48 h in CHAPS buffer (120 mM NaCl, 20 mM NaF, 1 mM EDTA, 25 mM Tris-HCl pH 7.5, 0.33% CHAPS); SFB-tagged bait held on S-protein beads, 4 °C, 2 h; 5 washes; Western blot

binding: binds
Substance: HA-FLAG-SHP1 (from UniProt P29350 1-595) (enzyme)
